Experimental data published in patent publication US20220241263A1, “PD-1 AXIS BINDING ANTAGONIST TO TREAT CANCER WITH GENETIC MUTATIONS IN SPECIFIC GENES” (Ares Trading S.A., priority 2019, published 2022).
At least one compound was matched to its structure with a doubt left.

Legend:
[1] = test system: patients with advanced renal cell carcinoma
[2] = test system: patients with advanced renal cell carcinoma; settings: higher vs lower UTS2 expression

SMILES: CCN(CC)CCNC(=O)c1c(C)[nH]c(/C=C2\C(=O)Nc3ccc(F)cc32)c1C [sunitinib]
- association of 306-gene immune response signature expression with PFS ([1]; WGCNA module): but not in the sunitinib arm
- association of consensus 414-gene immune response module with PFS ([1]; consensus WGCNA): but not in the sunitinib arm
- effect of UTS2 gene expression level on PFS [2]: did not affect PFS
